From patent publication US20110002926A1
These are yes or no findings as the source states them, for the method shown. Some binding calls cover weakened binding; strength is not graded here.

Key:
[1] = target: peptide H6 (AP33 mimotope); assay: peptide ELISA, COS7 supernatants
[2] = target: peptide H6 (AP33 mimotope); assay: peptide ELISA, biotinylated peptide on streptavidin, COS7 supernatant
E2 peptide G3 [3] = assay: peptide ELISA, biotinylated peptide on streptavidin, COS7 supernatant, OD 655 nm
[4] = target: peptide H6 (AP33 mimotope); assay: as above
Peptide D3 [5] = assay: as above
E2 peptide G3 [6] = assay: peptide ELISA, signal as percent of maximum H6 binding
Peptide D3 [7] = assay: as above
E2 peptide G3 [8] = assay: peptide ELISA, COS7 supernatants, heavy chain paired with RK2bc
E2 peptide C2 [9] = assay: as above
E2 peptide C2 [10] = assay: peptide ELISA, biotinylated peptide on streptavidin, COS7 supernatant, OD 655 nm
E2 peptide C2 [11] = assay: peptide ELISA, signal as percent of maximum H6 binding
E2 peptide B1 [12] = assay: peptide ELISA, biotinylated peptide on streptavidin, COS7 supernatant, OD 655 nm
E2 peptide B1 [13] = assay: peptide ELISA, signal as percent of maximum H6 binding

Measured: binding

B1: humanized AP33 antibody RHI/RK2bc (antibody, human IgG1, V domains shown)
VH: QVQLQESGPGLVKPSETLSLTCTVSGDSITSGYWNWIRKPPGRALEYMGYISYSGSTYYNLSLRSRITISRDTSKNQYSLRLSSVTAADTAMYYCALITTTTYAMDYWGQGTTVTVS
VL: EIVLTQSPSSLSASVGDRVTITCRASESVDGYGNSFLHWFQQKPGKAPKLLIYLASNLNSGVPSRFSGSGSRTDFTLTISSLQPEDFATYYCQQNNVDPWTFGQGTKLEIK
binds: [1] | [2]

B2: humanized AP33 antibody RH-H/RK2bc (antibody, V domains shown)
VH: QVQLQESGPGLVKPSETLSLTCTVSGDSITSGYWNWIRQPPGRALEYMGYISYSGSTYYNLSLRSRITISRDTSKNQYSLRLSSVTAADTAMYYCARITTTTYAMDYWGQGTTVTVS
VL: EIVLTQSPSSLSASVGDRVTITCRASESVDGYGNSFLHWFQQKPGKAPKLLIYLASNLNSGVPSRFSGSGSRTDFTLTISSLQPEDFATYYCQQNNVDPWTFGQGTKLEIK
binds: E2 peptide G3 [3] | [4] | Peptide D3 [5] | E2 peptide G3 [6] | Peptide D3 [7]

B3: humanized AP33 antibody RH-C/RK2bc (antibody, V domains shown)
VH: QVQLQESGPGLVKPSETLSLTCTVSGDSITSGYWNWIRQPPGRALEWMGYISYSGSTYYNLSLRSRITISRDTSKNQYSLRLSSVTAADTAMYYCALITTTTYAMDYWGQGTTVTVSS
VL: EIVLTQSPSSLSASVGDRVTITCRASESVDGYGNSFLHWFQQKPGKAPKLLIYLASNLNSGVPSRFSGSGSRTDFTLTISSLQPEDFATYYCQQNNVDPWTFGQGTKLEIK
not listed: [1] | [2] | E2 peptide B1 [12] | E2 peptide B1 [13]
binds: all other assays above

B4: AP33 RH-E/RK2bc (antibody, V domains shown)
VH: QVQLQESGPGLVKPSETLSLTCTVSGDSITSGYWNWIRQPPGRALEYMGYISYSGSTYYNLSLRSRVTISRDTSKNQYSLRLSSVTAADTAMYYCALITTTTYAMDYWGQGTTVTVS
VL: EIVLTQSPSSLSASVGDRVTITCRASESVDGYGNSFLHWFQQKPGKAPKLLIYLASNLNSGVPSRFSGSGSRTDFTLTISSLQPEDFATYYCQQNNVDPWTFGQGTKLEIK
binds: E2 peptide G3 [3] | [4] | Peptide D3 [5] | E2 peptide G3 [6] | Peptide D3 [7]

B5: humanized AP33 antibody RHA/RK2bc (antibody, human IgG1, V domains shown)
VH: QVQLQESGPGLVKPSETLSLTCTVSGDSISSGYWNWIRQPPGRALEWIGYISYSGSTYYNLSLRSRVTISVDTSKNQFSLRLSSVTAADTAMYYCARITTTTYAMDYWGQGTTVTVS
VL: EIVLTQSPSSLSASVGDRVTITCRASESVDGYGNSFLHWFQQKPGKAPKLLIYLASNLNSGVPSRFSGSGSRTDFTLTISSLQPEDFATYYCQQNNVDPWTFGQGTKLEIK
binds: [1] | [4]

B6: AP33 RH-D/RK2bc (antibody, V domains shown)
VH: QVQLQESGPGLVKPSETLSLTCTVSGDSITSGYWNWIRQPPGRALEYIGYISYSGSTYYNLSLRSRITISRDTSKNQYSLRLSSVTAADTAMYYCALITTTTYAMDYWGQGTTVTVS
VL: EIVLTQSPSSLSASVGDRVTITCRASESVDGYGNSFLHWFQQKPGKAPKLLIYLASNLNSGVPSRFSGSGSRTDFTLTISSLQPEDFATYYCQQNNVDPWTFGQGTKLEIK
binds: E2 peptide G3 [3] | E2 peptide C2 [10] | [4] | Peptide D3 [5] | E2 peptide G3 [6] | E2 peptide C2 [11] | Peptide D3 [7]

B7: humanized AP33 antibody RH-F/RK2bc (antibody, V domains shown)
VH: QVQLQESGPGLVKPSETLSLTCTVSGDSITSGYWNWIRQPPGRALEYMGYISYSGSTYYNLSLRSRITISVDTSKNQYSLRLSSVTAADTAMYYCALITTTTYAMDYWGQGTTVTVS
VL: EIVLTQSPSSLSASVGDRVTITCRASESVDGYGNSFLHWFQQKPGKAPKLLIYLASNLNSGVPSRFSGSGSRTDFTLTISSLQPEDFATYYCQQNNVDPWTFGQGTKLEIK
binds: E2 peptide G3 [3] | [4] | Peptide D3 [5] | E2 peptide G3 [6] | Peptide D3 [7]

B8: AP33 RH-B/RK2bc (antibody, V domains shown)
VH: QVQLQESGPGLVKPSETLSLTCTVSGDSISSGYWNWIRQPPGRALEYMGYISYSGSTYYNLSLRSRITISRDTSKNQYSLRLSSVTAADTAMYYCALITTTTYAMDYWGQGTTVTVSS
VL: EIVLTQSPSSLSASVGDRVTITCRASESVDGYGNSFLHWFQQKPGKAPKLLIYLASNLNSGVPSRFSGSGSRTDFTLTISSLQPEDFATYYCQQNNVDPWTFGQGTKLEIK
binds: E2 peptide G3 [3] | E2 peptide C2 [10] | [4] | Peptide D3 [5] | E2 peptide G3 [6] | E2 peptide C2 [11] | Peptide D3 [7]

B9: humanized AP33 antibody RHb-h/RK2bc (antibody, V domains shown)
VH: QVQLQESGPGLVKPSETLSLTCTVSGDSITSGYWNWIRQPPGRALEYMGYISYSGSTYYNLSLRSRITISRDTSKNQYSLRLSSVTAADTAMYYCALITTTTYAMDYWGQGTTVTVS
VL: EIVLTQSPSSLSASVGDRVTITCRASESVDGYGNSFLHWFQQKPGKAPKLLIYLASNLNSGVPSRFSGSGSRTDFTLTISSLQPEDFATYYCQQNNVDPWTFGQGTKLEIK
binds: [1] | E2 peptide G3 [3] | [4] | Peptide D3 [5] | E2 peptide G3 [6] | Peptide D3 [7]

B10: humanized AP33 antibody RH-G/RK2bc (antibody, V domains shown)
VH: QVQLQESGPGLVKPSETLSLTCTVSGDSITSGYWNWIRQPPGRALEYMGYISYSGSTYYNLSLRSRITISRDTSKNQFSLRLSSVTAADTAMYYCALITTTTYAMDYWGQGTTVTVS
VL: EIVLTQSPSSLSASVGDRVTITCRASESVDGYGNSFLHWFQQKPGKAPKLLIYLASNLNSGVPSRFSGSGSRTDFTLTISSLQPEDFATYYCQQNNVDPWTFGQGTKLEIK
binds: E2 peptide G3 [3] | [4] | Peptide D3 [5] | E2 peptide G3 [6] | Peptide D3 [7]

B11: chimeric AP33 antibody (Vh/Vl) (antibody, V domains shown)
VH: EVQLQESGPSLVKPSQTLSLTCSVTGDSITSGYWNWIRKFPGNKLEYMGYISYSGSTYYNLSLRSRISITRDTSKNQYYLQLNSVTTEDTATYYCALITTTTYAMDYWGQGTSVTVS
VL: NIVLTQSPVSLAVSLGQRATISCRASESVDGYGNSFLHWFQQKPGQPPKLLIYLASNLNSGVPARFSGSGSRTDFTLTIDPVEADDAATYYCQQNNVDPWTFGGGTKLEIK
not listed: E2 peptide G3 [8] | E2 peptide C2 [9]
binds: all other assays above

B12: Vh/RK2bc (antibody, V domains shown)
VH: EVQLQESGPSLVKPSQTLSLTCSVTGDSITSGYWNWIRKFPGNKLEYMGYISYSGSTYYNLSLRSRISITRDTSKNQYYLQLNSVTTEDTATYYCALITTTTYAMDYWGQGTSVTVS
VL: EIVLTQSPSSLSASVGDRVTITCRASESVDGYGNSFLHWFQQKPGKAPKLLIYLASNLNSGVPSRFSGSGSRTDFTLTISSLQPEDFATYYCQQNNVDPWTFGQGTKLEIK
binds: [4]

B13: RHI/Vl (humanized heavy chain RHI with chimeric AP33 light chain) (antibody, human IgG1, V domains shown)
VH: QVQLQESGPGLVKPSETLSLTCTVSGDSITSGYWNWIRKPPGRALEYMGYISYSGSTYYNLSLRSRITISRDTSKNQYSLRLSSVTAADTAMYYCALITTTTYAMDYWGQGTTVTVS
VL: NIVLTQSPVSLAVSLGQRATISCRASESVDGYGNSFLHWFQQKPGQPPKLLIYLASNLNSGVPARFSGSGSRTDFTLTIDPVEADDAATYYCQQNNVDPWTFGGGTKLEIK
binds: [1] | [2]

B14: RHb-h/Vl (humanized heavy chain RHb-h with chimeric AP33 light chain) (antibody, V domains shown)
VH: QVQLQESGPGLVKPSETLSLTCTVSGDSITSGYWNWIRQPPGRALEYMGYISYSGSTYYNLSLRSRITISRDTSKNQYSLRLSSVTAADTAMYYCALITTTTYAMDYWGQGTTVTVS
VL: NIVLTQSPVSLAVSLGQRATISCRASESVDGYGNSFLHWFQQKPGQPPKLLIYLASNLNSGVPARFSGSGSRTDFTLTIDPVEADDAATYYCQQNNVDPWTFGGGTKLEIK
binds: [1] | [2] | [4] | Peptide D3 [5]

B15: RHA/Vl (humanized heavy chain RHA with chimeric AP33 light chain) (antibody, human IgG1, V domains shown)
VH: QVQLQESGPGLVKPSETLSLTCTVSGDSISSGYWNWIRQPPGRALEWIGYISYSGSTYYNLSLRSRVTISVDTSKNQFSLRLSSVTAADTAMYYCARITTTTYAMDYWGQGTTVTVS
VL: NIVLTQSPVSLAVSLGQRATISCRASESVDGYGNSFLHWFQQKPGQPPKLLIYLASNLNSGVPARFSGSGSRTDFTLTIDPVEADDAATYYCQQNNVDPWTFGGGTKLEIK
binds: [1] | [4]
